PubChem BioAssay AID602196, INSERM | 2012

- Aim: 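Genes whose knock-down alters cisplatin killing of lung cancer cells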
- Cell system: human A549 lung cancer cells
- Reagent: siRNA pair against human genes
- Timing: 48 h transfection before cisplatin; time from cisplatin to read-out not stated
- Conditions: cisplatin at a dose killing half of control-siRNA cells; exact dose and duration not given
- Read-out: 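Shift in cisplatin death relative to control siRNA, from -50 (all cells die) to +50 (no cells die); siRNAs harmful on their own scored 0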
- Scale: two-siRNA summed score (-2 to +2): higher = both siRNAs protect from cisplatin killing; -2 means both sensitise; mean protection from cisplatin (shift in death) and protection from cisplatin (shift in death), siRNA C and protection from cisplatin (shift in death), siRNA D: higher = protection from cisplatin killing
- Active means: 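siRNAs harmful alone (LDH or WST-1) get 0; others get +1 for less and -1 for more cisplatin killing; genes are active when the two siRNAs give the same sign, summing to ±2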
- Meaning of the calls: active = both siRNAs shift cisplatin killing the same way; inactive = no consistent shift, or siRNA harmful alone
Here is an unselected part of about 23,000 deposited reagents. 455 of all reagents (2%) count as active. 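Active includes both protection and sensitisation; some change values fall well beyond the stated -50 to +50 range.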 Not given: the amount of reagent.

Target gene | two-siRNA summed score (-2 to +2) | mean protection from cisplatin (shift in death) (%) | protection from cisplatin (shift in death), siRNA C (%) | protection from cisplatin (shift in death), siRNA D (%) | Outcome
OFD1 | 0 | -1.4 | -11.3 | 8.6 | inactive
GRM5 | 0 | -0.2 | -3.4 | 3.1 | inactive
SDHAF3 | 0 | 3.2 | 2.2 | 4.2 | inactive
ATF2 | 0 | -0.9 | -0.9 | -1 | inactive
LOC442141 | 0 | 29.7 | 65.4 | -6 | inactive
TSPAN16 | 0 | -12 | -12.2 | -11.8 | inactive
ZNF521 | 0 | 5.5 | 14.8 | -3.8 | inactive
ZFP28 | 1 | 14.4 | 19.3 | 9.4 | inactive
COL14A1 | 0 | -6.9 | -22.6 | 8.8 | inactive
MTG2 | 0 | -2.2 | 4.1 | -8.4 | inactive
LOC339351 | 0 | 21.8 | 5.7 | 38 | inactive
SULT2A1 | 1 | 15.6 | 24.7 | 6.4 | inactive
CFAP418 | 0 | 2.1 | 6.1 | -1.9 | inactive
FLJ44955 | 0 | 4.2 | -9.1 | 17.5 | inactive
MED10 | 0 | 8.6 | 8 | 9.1 | inactive
CLYBL | 1 | 9.4 | 6.7 | 12.1 | inactive
PRCP | 0 | -4.8 | -10 | 0.4 | inactive
NUP98 | 0 | -0.3 | 8.8 | -9.4 | inactive
DTYMK | 0 | 15.7 | 38.2 | -6.7 | inactive
PPM1J | -1 | 10.6 | 35.9 | -14.8 | inactive
LOC387783 | 1 | 10.5 | -7.4 | 28.3 | inactive
PLXNA1 | 0 | 9.2 | -10.3 | 28.7 | inactive
SST | 0 | 7.4 | -4.4 | 19.2 | inactive
LOC126661 | 0 | -3.7 | 7 | -14.4 | inactive
EIF4E | 0 | 8.7 | 10.6 | 6.7 | inactive
DUSP29 | 0 | 11.4 | 13 | 9.9 | inactive
BEND4 | 0 | 6.9 | 0.3 | 13.4 | inactive
LOC441133 | 0 | 10.3 | 10.2 | 10.4 | inactive
MVD | 0 | 0.9 | -10.5 | 12.3 | inactive
LOC441597 | 0 | 19.5 | 12.6 | 26.4 | inactive
LOC400212 | 1 | 9.4 | -9 | 27.7 | inactive
PGC | 0 | -5.7 | 1.7 | -13 | inactive
AUTS2 | 0 | 3.6 | 4.6 | 2.7 | inactive
LOC387876 | 0 | 5.6 | -0.9 | 12.1 | inactive
ORAI3 | 0 | -7.3 | 0.1 | -14.8 | inactive
APOL1 | 0 | 4.4 | 8.6 | 0.2 | inactive
FLJ20972 | 0 | 3.1 | -3.7 | 9.9 | inactive
HADH | 1 | 11.3 | 11.5 | 11.1 | inactive
JAKMIP1-DT | 0 | 8.2 | 8.7 | 7.7 | inactive
LOC401180 (retired record) | 0 | 3 | 2.3 | 3.8 | inactive
VTI1B | 0 | -10.7 | -33.2 | 11.8 | inactive
LOC390256 | 1 | 6.1 | 6.8 | 5.4 | inactive
DIMT1 | 0 | 25 | 38.3 | 11.6 | inactive
EEF1AKMT2 | 1 | 8.7 | 27.4 | -10.1 | inactive
MTO1 | 0 | -3.1 | -6.9 | 0.6 | inactive
MAP3K2 | 1 | 17 | 27.2 | 6.8 | inactive
LOC389184 | 0 | -3.9 | -6.9 | -0.9 | inactive
LOC442474 | 0 | 4.6 | 1.4 | 7.9 | inactive
YTHDF3 | 0 | 4.2 | 5.9 | 2.4 | inactive
LOC442039 | 1 | 11.8 | 2.8 | 20.7 | inactive
POLE | 0 | -11.7 | -12.9 | -10.4 | inactive
ZNF174 | 1 | -3 | -15 | 9 | inactive
GK2 | 1 | 10.2 | 6.6 | 13.8 | inactive
SF3B5 | 0 | 4.6 | 3.8 | 5.5 | inactive
FOXF1 | 0 | -7.1 | -10.5 | -3.7 | inactive
SLC14A2 | 0 | 5 | 5.7 | 4.4 | inactive
PSMG2 | 0 | 9.9 | 5.9 | 13.8 | inactive
